Experimental data taken from PMC3613372.
No constants are given. Whether binding was seen depends on the method and setting. Binding seen in cells or lysates may run through a third protein. Some results given as binding are weak or reduced against the parent protein; the word gives no strength.

Sequences of proteins named here, by UniProt entry; tags and fusion partners are left off. A change or cut given only in a name is not applied to a line headed by its entry. Residues count along the entry.
UniProt Q15853: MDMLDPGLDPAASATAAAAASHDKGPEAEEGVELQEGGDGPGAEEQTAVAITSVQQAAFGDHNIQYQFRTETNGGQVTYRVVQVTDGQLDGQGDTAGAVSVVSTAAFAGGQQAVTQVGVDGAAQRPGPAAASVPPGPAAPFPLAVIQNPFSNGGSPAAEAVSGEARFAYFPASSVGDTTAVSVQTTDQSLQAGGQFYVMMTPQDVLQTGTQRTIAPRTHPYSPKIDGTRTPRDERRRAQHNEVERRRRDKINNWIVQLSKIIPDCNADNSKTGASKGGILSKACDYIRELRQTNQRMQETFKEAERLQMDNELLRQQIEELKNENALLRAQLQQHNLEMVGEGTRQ
UniProt P25490: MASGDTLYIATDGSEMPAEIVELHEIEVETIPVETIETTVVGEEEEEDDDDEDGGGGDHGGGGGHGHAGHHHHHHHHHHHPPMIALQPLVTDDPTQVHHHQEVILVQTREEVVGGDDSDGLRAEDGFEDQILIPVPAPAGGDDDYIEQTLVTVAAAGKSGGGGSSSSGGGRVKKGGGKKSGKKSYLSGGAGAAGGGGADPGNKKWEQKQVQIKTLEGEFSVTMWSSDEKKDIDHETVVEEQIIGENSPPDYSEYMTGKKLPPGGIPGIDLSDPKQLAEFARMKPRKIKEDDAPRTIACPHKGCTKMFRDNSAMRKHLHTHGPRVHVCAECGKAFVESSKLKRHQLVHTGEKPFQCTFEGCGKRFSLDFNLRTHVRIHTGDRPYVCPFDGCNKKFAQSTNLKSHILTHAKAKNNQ
UniProt P17676, residues 24-345: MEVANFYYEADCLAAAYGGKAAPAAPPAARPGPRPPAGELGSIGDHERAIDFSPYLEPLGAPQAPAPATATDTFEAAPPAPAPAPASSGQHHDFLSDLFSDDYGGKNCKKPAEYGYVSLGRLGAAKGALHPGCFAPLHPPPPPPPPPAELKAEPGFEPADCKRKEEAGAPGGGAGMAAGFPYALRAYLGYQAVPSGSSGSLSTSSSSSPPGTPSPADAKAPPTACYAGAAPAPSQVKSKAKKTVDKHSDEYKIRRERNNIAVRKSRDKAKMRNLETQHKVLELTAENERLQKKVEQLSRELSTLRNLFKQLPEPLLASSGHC

Tests used:
[1] = target: USF2 (human (endogenous in Beas2B)) (UniProt Q15853); experiment: co-IP; Beas2B cells in RIPA buffer (50 mM Tris/HCl pH 7.4, 150 mM NaCl, 1% NP40, 0.5% sodium deoxycholate, 0.1% SDS, 5 mM EDTA); IP with 3 µg of specific antibody or non-specific anti-HA (ExactaCruz F kit); western blot; in Figure 7B cells with or without NAF treatment
[2] = target: YY1 (human (endogenous in Beas2B)) (UniProt P25490); experiment: as above

Row | binding [1] | binding [2] | Substance
1 | binds |  | CCAAT/enhancer binding protein beta (C/EBPβ) (from UniProt P17676-2 1-322)
2 |  | binds | USF2 (from UniProt Q15853-1 1-346)
3 | binds |  | YY1 (from UniProt P25490 1-414)
